PubChem BioAssay AID1053209 | Peter MacCallum Cancer Centre, 2014
Test: 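Knock-downs that sensitise mouse osteosarcoma cells to doxorubicin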 (follow-up of hits). Cell system: mouse primary osteosarcoma cells. Reagent: single siRNA against mouse genes, 25 nM (text also states 40 nM). Duration: about 120 h (48 h before drug, then 72 h with drug). Challenge: doxorubicin 100 nM (about IC30-40), added 48 h after transfection, for 72 h. Read-out: 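ATP-based luminescent viability, with or without doxorubicin, relative to non-targeting control NT1, mean of two replicates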. Scale: viability with doxorubicin, vs NT1: higher = more viable cells under doxorubicin; viability ratio, doxorubicin over no drug: higher = less sensitisation to doxorubicin; viability without drug, vs NT1: higher = more viable cells without drug. Call rule: 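Counted as active (class LC dox) if viability falls to 0.7 of NT1 or below under doxorubicin but stays within 0.7 to 1.1 without drug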.
Shown is an unselected part of about 1,580 reagents tested. Over the whole deposit, 207 (13%) got an active call. 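Rows are single siRNAs; four siRNAs per gene were tested, a gene counting as confirmed only when at least two agree.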 Unmarked entries are inactive. Reagents against one gene are numbered here.

no.	gene knocked down	reagent no.	combined effect class	viability with doxorubicin, vs NT1	viability ratio, doxorubicin over no drug	viability without drug, vs NT1
1	Gpn1	1	low viability only with doxorubicin; normal without drug (active)	0.56	0.74	0.76
2	Gpn1	2	low viability only with doxorubicin; normal without drug (active)	0.66	0.8	0.82
3	Gpn1	3	low viability only with doxorubicin; normal without drug (active)	0.66	0.74	0.89
4	Gpn1	4	normal viability with and without drug	1.06	1.02	1.04
5	Rbm34	1	normal viability with and without drug	0.96	0.99	0.97
6	Rbm34	2	normal viability with and without drug	0.9	0.85	1.06
7	Rbm34	3	normal viability with and without drug	1.01	0.95	1.06
8	Rbm34	4	high viability with and without drug	1.14	1.02	1.12
9	Nup62	1	low viability with and without drug	0.42	0.62	0.68
10	Nup62	2	low viability with and without drug	0.18	0.56	0.32
11	Nup62	3	normal viability with and without drug	0.91	1.2	0.76
12	Nup62	4	low viability with and without drug	0.4	0.69	0.58
13	U2surp	1	normal viability with and without drug	0.9	0.93	0.97
14	U2surp	2	normal viability with and without drug	0.93	0.99	0.94
15	U2surp	3	normal viability with and without drug	0.92	0.88	1.05
16	U2surp	4	high viability only with doxorubicin	1.1	1.06	1.04
17	Rasgrf1	1	high viability only without drug	0.98	0.85	1.15
18	Rasgrf1	2	normal viability with and without drug	0.94	0.96	0.98
19	Rasgrf1	3	normal viability with and without drug	0.97	0.96	1.01
20	Rasgrf1	4	normal viability with and without drug	1.06	1	1.06
21	Unc5d	1	normal viability with and without drug	1	1.02	0.98
22	Unc5d	2	normal viability with and without drug	0.82	0.86	0.95
23	Unc5d	3	normal viability with and without drug	1.07	0.99	1.08
24	Unc5d	4	normal viability with and without drug	1	1.08	0.93

Entries above whose target name begins with G or g:
gene knocked down	reagent no.	combined effect class	viability with doxorubicin, vs NT1	viability ratio, doxorubicin over no drug	viability without drug, vs NT1
Gpn1	1	low viability only with doxorubicin; normal without drug (active)	0.56	0.74	0.76
Gpn1	2	low viability only with doxorubicin; normal without drug (active)	0.66	0.8	0.82
Gpn1	3	low viability only with doxorubicin; normal without drug (active)	0.66	0.74	0.89
Gpn1	4	normal viability with and without drug	1.06	1.02	1.04
